Measured values: publication PMC12669963, “PGAM5 cleavage and oligomerization equilibrates mitochondrial dynamics under stress by regulating DRP1 function” (Journal of Cell Science, 2025)
These are yes or no findings as the source states them, for the method shown. In cells and extracts the contact can be indirect. Binding calls can cover weak binding; strength is not graded here.

By UniProt entry, the sequences of proteins in these tests, tags left out. Where a name states a change or a piece, a line headed by the entry shows the natural chain unless it says otherwise.
UniProt Q96HS1: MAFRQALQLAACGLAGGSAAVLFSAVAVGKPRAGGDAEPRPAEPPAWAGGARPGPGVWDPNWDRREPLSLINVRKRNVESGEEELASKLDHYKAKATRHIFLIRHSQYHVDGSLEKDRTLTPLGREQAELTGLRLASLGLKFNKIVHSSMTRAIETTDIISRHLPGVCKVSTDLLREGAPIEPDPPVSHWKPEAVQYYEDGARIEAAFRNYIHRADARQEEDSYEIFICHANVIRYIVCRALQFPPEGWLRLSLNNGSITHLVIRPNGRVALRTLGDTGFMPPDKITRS
UniProt O00429: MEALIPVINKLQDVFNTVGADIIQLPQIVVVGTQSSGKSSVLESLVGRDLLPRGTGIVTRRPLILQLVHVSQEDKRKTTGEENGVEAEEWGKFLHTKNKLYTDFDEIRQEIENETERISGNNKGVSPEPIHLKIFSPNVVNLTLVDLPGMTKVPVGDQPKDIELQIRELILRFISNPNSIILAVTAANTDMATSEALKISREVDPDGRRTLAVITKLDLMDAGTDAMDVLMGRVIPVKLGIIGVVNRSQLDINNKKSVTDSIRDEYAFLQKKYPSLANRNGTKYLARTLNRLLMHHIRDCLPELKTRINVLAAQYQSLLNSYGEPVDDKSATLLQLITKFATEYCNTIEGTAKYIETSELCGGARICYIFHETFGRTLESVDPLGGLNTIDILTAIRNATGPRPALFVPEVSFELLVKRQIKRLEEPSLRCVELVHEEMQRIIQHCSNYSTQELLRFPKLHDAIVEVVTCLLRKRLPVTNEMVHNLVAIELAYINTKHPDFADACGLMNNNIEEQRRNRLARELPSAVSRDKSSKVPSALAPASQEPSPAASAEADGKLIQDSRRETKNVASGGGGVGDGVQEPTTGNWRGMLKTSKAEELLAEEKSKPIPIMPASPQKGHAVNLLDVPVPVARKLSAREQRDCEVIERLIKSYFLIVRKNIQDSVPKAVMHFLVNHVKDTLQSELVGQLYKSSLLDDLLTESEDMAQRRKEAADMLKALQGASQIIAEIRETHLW

Molecular target: ΔMM WT PGAM5 GFP (UniProt Q96HS1)
Assay: co-IP; GFP-trap beads on lysates of transfected HEK293 (methods: HEK293T) cells treated with DMSO or 20 μM CCCP for 2 h; lysis buffer 20 mM Tris-HCl pH 7.4, 200 mM NaCl, 5 mM EDTA, 10 mM MgCl2, 1% Triton X-100; western blot

Question: Which binding does the source give for “dynamin-related protein 1 (DRP1) (from UniProt O00429 1-736)” here?
Answer: binds
